Results from one PubChem assay

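Luminescence from an EWS-FLI1 target-promoter (NR0B1) reporter, set against a CMV-promoter reporter, two days after silencing single genes in TC32 Ewing sarcoma cells.
Each siRNA was applied at 20 nM.
A z-score of the log NR0B1-over-CMV signal, less the median of siRNAs with the same seed; more negative means a stronger specific loss of the NR0B1 reporter.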

The strongest results of the screen are mostly left out here.
Sequences are the guide (antisense) strand, without overhang.

{"sequence": "UUGAGGAUAAGGCCUCCCA", "gene": "FXYD4", "seed-corrected z-score": "-0.577"}
{"sequence": "UUACUCACUUCAAAGAGGC", "gene": "SRGAP2C", "seed-corrected z-score": "0.8151"}
{"sequence": "UGAACCAUCAGUGUUCGGG", "gene": "DEPDC1B", "seed-corrected z-score": "0.1439"}
{"sequence": "UUGCUGUAGACAACCGCCC", "gene": "GNAI2", "seed-corrected z-score": "0.5086"}
{"sequence": "UACCGUAUCAGCAUCGUCC", "gene": "NOP2", "seed-corrected z-score": "-0.9137"}
{"sequence": "UUCUUUCCAACAAUCAUGC", "gene": "IQSEC2", "seed-corrected z-score": "-0.968"}
{"sequence": "UUCUAUGUGAAAAGUAACC", "gene": "MANEA", "seed-corrected z-score": "-0.1896"}
{"sequence": "AAUGAAAUCGAUGCGCUUG", "gene": "FAM122A", "seed-corrected z-score": "-0.5831"}
{"sequence": "UAAUCUUCUGAGUACGUUG", "gene": "C9orf135", "seed-corrected z-score": "-0.4874"}
{"sequence": "UAAUCGAAUUUGCUGGAUG", "gene": "C2orf44", "seed-corrected z-score": "-0.4717"}
{"sequence": "UAAAUUUCAGUGUACGUGC", "gene": "LINC00938", "seed-corrected z-score": "-0.1579"}
{"sequence": "UCAAAAUUCACCAAUAGCC", "gene": "DDC", "seed-corrected z-score": "0.02118"}
{"sequence": "UAAGAAGCGCGGAGACUCU", "gene": "C16orf92", "seed-corrected z-score": "0.121"}
{"sequence": "UUGGGUCCAAGGUUGUCUG", "gene": "ZNF839", "seed-corrected z-score": "0.2025"}
{"sequence": "AAUCAUUCCAUGAUUGAUG", "gene": "CYSTM1", "seed-corrected z-score": "0.697"}
{"sequence": "UGACCUUCUCUCUUGAUCC", "gene": "HELLS", "seed-corrected z-score": "-0.2752"}
{"sequence": "UCCCAUACAAUAUCUAAGG", "gene": "EFCAB6", "seed-corrected z-score": "0.5904"}
{"sequence": "UAUGGGAUACACUUUACUU", "gene": "COPS7A", "seed-corrected z-score": "0.694"}
{"sequence": "AAUGGUAUGUCCAUCAUUG", "gene": "CA8", "seed-corrected z-score": "0.7097"}
{"sequence": "UUUUCUCUCAUCGAAAUUC", "gene": "CCNC", "seed-corrected z-score": "0.876"}
{"sequence": "UCUUGCUCAAGUAAACGGG", "gene": "GUSB", "seed-corrected z-score": "-0.0857"}
{"sequence": "UCUGGGUCAGCUAUGAGCU", "gene": "ZC3H3", "seed-corrected z-score": "0.7399"}
{"sequence": "AAAGGAUCCAACUUAAUUG", "gene": "WARS2", "seed-corrected z-score": "0.03617"}
{"sequence": "UAUUUAGUGAACCUAAUGC", "gene": "GPR160", "seed-corrected z-score": "-0.8553"}
{"sequence": "UUCUUACAGAUGGAGACGG", "gene": "ZDHHC16", "seed-corrected z-score": "0.3921"}
{"sequence": "UCUGAUAUGAGGUACAAGC", "gene": "INCENP", "seed-corrected z-score": "-1.067"}
{"sequence": "UCAGGAAAGCUAGCGAGUG", "gene": "PPDPF", "seed-corrected z-score": "0.7913"}
{"sequence": "UCCGGAUCCACAAUUCUCA", "gene": "CSTF2", "seed-corrected z-score": "-0.138"}

For reference, 3 entries once more:

| Sequence | gene | seed-corrected z-score |
|---|---|---|
| `UCCGGAUCCACAAUUCUCA` | CSTF2 | -0.138 |
| `UAAUCUUCUGAGUACGUUG` | C9orf135 | -0.4874 |
| `UAAGAAGCGCGGAGACUCU` | C16orf92 | 0.121 |

Data taken from PubChem BioAssay AID1159506, deposited by NCATS (2015).